Experimental data published in PMC9526944.
Results are given in words; binding and its absence hold for the method and conditions named. Binding seen in cells or lysates may run through a third protein. Some results given as binding are weak or reduced against the parent protein; the word gives no strength.

Protein sequences, listed by entry. Tags and fused reporters are not part of them.
UniProt Q91YI4: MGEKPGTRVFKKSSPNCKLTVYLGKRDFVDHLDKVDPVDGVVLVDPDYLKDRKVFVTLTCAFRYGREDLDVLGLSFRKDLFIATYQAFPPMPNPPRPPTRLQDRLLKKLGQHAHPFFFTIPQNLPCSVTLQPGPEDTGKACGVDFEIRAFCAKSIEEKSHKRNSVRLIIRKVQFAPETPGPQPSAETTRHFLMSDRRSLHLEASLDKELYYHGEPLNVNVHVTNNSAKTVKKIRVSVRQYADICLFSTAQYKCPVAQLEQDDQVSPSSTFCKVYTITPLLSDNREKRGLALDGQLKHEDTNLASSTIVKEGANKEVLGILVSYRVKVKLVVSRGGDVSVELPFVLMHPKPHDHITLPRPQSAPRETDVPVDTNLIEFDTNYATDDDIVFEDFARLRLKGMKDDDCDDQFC
UniProt P42227: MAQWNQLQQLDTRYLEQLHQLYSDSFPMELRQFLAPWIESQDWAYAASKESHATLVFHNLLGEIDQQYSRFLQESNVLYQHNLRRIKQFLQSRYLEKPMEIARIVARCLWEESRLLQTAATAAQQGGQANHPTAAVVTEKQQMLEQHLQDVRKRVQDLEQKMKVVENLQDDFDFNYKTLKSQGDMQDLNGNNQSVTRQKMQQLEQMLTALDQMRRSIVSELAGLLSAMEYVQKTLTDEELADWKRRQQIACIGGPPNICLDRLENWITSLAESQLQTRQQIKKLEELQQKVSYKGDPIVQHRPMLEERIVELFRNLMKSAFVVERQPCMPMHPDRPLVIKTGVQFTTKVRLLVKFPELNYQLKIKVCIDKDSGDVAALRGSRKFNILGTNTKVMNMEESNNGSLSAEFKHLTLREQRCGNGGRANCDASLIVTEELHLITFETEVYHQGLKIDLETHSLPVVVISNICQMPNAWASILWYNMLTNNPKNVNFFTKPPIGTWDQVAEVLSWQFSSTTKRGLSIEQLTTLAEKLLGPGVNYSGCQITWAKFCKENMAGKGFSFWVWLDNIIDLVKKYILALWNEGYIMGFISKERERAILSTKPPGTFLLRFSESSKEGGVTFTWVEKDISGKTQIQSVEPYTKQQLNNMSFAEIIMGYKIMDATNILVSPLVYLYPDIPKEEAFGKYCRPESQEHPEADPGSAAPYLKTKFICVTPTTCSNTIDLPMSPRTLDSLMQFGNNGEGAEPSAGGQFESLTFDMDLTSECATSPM

How the values were obtained:
[1] = target: β-arrestin2 (mouse (endogenous in primary astrocytes)) (UniProt Q91YI4); test: co-IP; endogenous proteins; lysates of primary astrocytes treated with IL-6 (300 ng/mL) and UNC9995 (10 μM) or not, immunoprecipitated with anti-STAT3 or with anti-β-arrestin2 antibody, immunoblotting
[2] = target: Flag-tagged STAT3 (UniProt P42227); test: co-IP; Flag-tagged STAT3 and β-arrestin2 pcDNA3.1 constructs co-transfected in HEK293T cells; lysates immunoprecipitated with anti-Flag antibody, immunoblotting
[3] = target: STAT3 (mouse (endogenous in primary astrocytes)) (UniProt P42227); test: proximity ligation; Duolink PLA in fixed primary astrocytes pretreated with UNC9995 for 1 h and then stimulated with IL-6 (300 ng/mL) for 24 h; rabbit anti-β-arrestin2 and mouse anti-STAT3 primary antibodies
[4] = target: Flag-tagged STAT3 (in primary astrocytes) (UniProt P42227); test: co-IP; Flag-tagged STAT3 transfected in primary astrocytes treated with IL-6 (300 ng/mL) and UNC9995 or not; lysates immunoprecipitated with anti-flag antibody, immunoblotting
[5] = target: STAT3 (mouse (endogenous in primary astrocytes)) (UniProt P42227); test: co-IP; endogenous proteins; lysates of primary astrocytes treated with IL-6 (300 ng/mL) and UNC9995 (10 μM) or not, immunoprecipitated with anti-STAT3 or with anti-β-arrestin2 antibody, immunoblotting

How did the binding [1] turn out when STAT3 (from UniProt P42227 1-770) was run?
The binding was “binds”.

For “β-arrestin2 (pcDNA3.1 construct) (from UniProt Q91YI4 1-410)”, which binding [2] is on record?
The binding was “binds”.

How did the binding [3] turn out when β-arrestin2 (from UniProt Q91YI4 1-410) was run?
Its binding is “binds”.

What about the binding [4] of the same substance?
Its binding is “binds”.

And the binding [5]?
The binding was “binds”.
